Reference: publication PMC12431657, “Discovery and mechanistic insights of dibenzoylmethane as a broad spectrum inhibitor of coronavirus” (PLOS Pathogens, 2025)
Structures can show the parent of a compound that is named as a salt. Where two headings read alike, the source gives them in different places. Hit rate of the full screen: of about 3,300 compounds, about 95 (3%) showed an effect of 50% or more. The list shows a part of the results.

Test system: HCoV-229E
Parameters: species or system Huh-7; HTS, protection from HCoV-229E induced cell death, luminescent cell viability (CellCounting-Lite 2.0), inhibition rate
Settings: 24 h post infection, 1 h compound pre-incubation, 10 µM, inhibitor

SMILES | 229E Inhibition rate (229E Inhibition rate, 24 h) | 229E Inhibition rate
CN1CCc2cc3c(cc2C1O)OCO3 (centres unmarked) [Hydrastinine] | 19.2% | –
C[C@@H]1O[C@@H](O[C@H]2[C@H](OC(=O)[C@]34CCC(C)(C)C[C@H]3C3=CC[C@@H]5[C@@]6(C)C[C@H](O)[C@H](O[C@@H]7O[C@H](CO)[C@@H](O)[C@H](O[C@@H]8O[C@H](CO)[C@@H](O)[C@H](O)[C@H]8O)[C@H]7O)C(CO)(CO)[C@@H]6CC[C@@]5(C)[C@]3(C)C[C@H]4O)OC[C@H](O)[C@@H]2O)[C@H](O)[C@H](O)[C@H]1O[C@@H]1OC[C@@H](O)[C@H](O[C@@H]2OC[C@](O)(CO)[C@H]2O)[C@H]1O [Platycodin D2] | – | 4.5%
CCC(C)c1nccnc1OC (centres unmarked) [2-Sec-butyl-3-methoxypyrazine] | – | 18.6%
COc1ccc2cc3n(c(=O)c2c1OC)CCc1cc2c(cc1-3)OCO2 [Oxyberberine] | – | 37.5%
C=C1C(=O)[C@@]23[C@@H]4OC5O[C@@]2(O)[C@@H](O)[C@@H]2C(C)(C)CC[C@@H](O)[C@]52[C@@H]3CC[C@@H]14 [ponicidin] | – | 95.6%
O=C(/C=C/c1ccc(O)c(O)c1)OC[C@H]1O[C@@H](OCCc2ccc(O)c(O)c2)[C@H](O)[C@@H](O)[C@@H]1O [Calceolarioside B] | – | 10.8%
COC(=O)[C@@H](Cc1ccc(O)c(O)c1)OC(=O)/C=C/c1ccc(O)c(O)c1 [Methyl rosmarinate] | – | 13%
COc1ccc([C@@H]2CC(=O)c3c(O)cc(O[C@@H]4O[C@H](CO[C@@H]5O[C@@H](C)[C@H](O)[C@@H](O)[C@H]5O)[C@@H](O)[C@H](O)[C@H]4O)cc3O2)cc1O [Hesperidin] | – | 33.4%
CC(C)NCC(O)COc1cccc2ccccc12 (centres unmarked) [Propranolol (hydrochloride)] | 21.5% | –
COc1c2ccoc2c(OC)c2oc(=O)ccc12 [Isopimpinellin] | – | 15.5%
c1ccc2c(c1)cc1ccc3cccc4ccc2c1c34 [Benzo[a]pyrene] | – | 24.5%
COc1ccc(O)cc1OC [3,4-Dimethoxyphenol] | – | 20.6%
COc1c2cc3c(c1OC)CCN(C)[C@@H]3Cc1ccc(cc1)Oc1cc3c(c(OC)c1OC)CCN(C)[C@@H]3Cc1ccc(cc1)O2 [Cycleanine] | – | 5.3%
COc1cc2cc(Oc3ccc4ccc(=O)oc4c3)c(=O)oc2cc1O [Daphnoretin] | – | 11.2%
C[C@]1(OC(=O)/C=C/c2ccccc2)C[C@@H](O)[C@]2(O)C=CO[C@@H](O[C@@H]3O[C@H](CO)[C@@H](O)[C@H](O)[C@H]3O)[C@@H]21 [Harpagoside] | – | 19.6%
COc1ccc(-c2cc(=O)c3c(O)cc(O)c(-c4cc(-c5cc(=O)c6c(O)cc(O)cc6o5)ccc4OC)c3o2)cc1 [Isoginkgetin] | – | 6.1%
CCCCC(CC)COC(=O)c1ccccc1C(=O)O (centres unmarked) [Phthalic acid mono-2-ethylhexyl ester] | – | 19.1%
CC1(C)[C@@H]2CC[C@@]1(C)C(=O)C2 [(+)-Camphor] | – | 14.5%
O=Cc1c[nH]c2ccccc12 [Indole-3-carboxaldehyde] | – | 19%

SMILES | 229E Inhibition rate (229E Inhibition rate, 24 h) | 229E Inhibition rate
Cn1cncc1C[C@H](NC(=O)CCN)C(=O)O [Anserine] | 14.1% | –
C[C@@H]1C[C@H]2CC3=C(CCC(=O)N3)[C@@]3(C1)[C@@H]2CCCN3C [α-Obscurine] | – | 2.4%
COc1cc(O)c2c(c1)oc(=O)c1c3cc(O)c(O)cc3oc21 [Wedelolactone] | – | 29.8%
C[C@H](CCC(=O)O)[C@H]1CC[C@H]2[C@@H]3CC=C4C[C@@H](O)CC[C@]4(C)[C@H]3CC[C@]12C [3b-Hydroxy-5-cholenoic acid] | – | 19%
Nc1cc[nH]c(=O)n1 [Cytosine] | – | 23.8%
N[C@@H](CC(=O)O)C(=O)O [L-Aspartic acid] | 9.8% | –
CC1=CC(=O)CC(C)(C)C1 [Isophorone] | – | 14.6%
OCc1ccc(CO)o1 [2,5-Furandimethanol] | – | 11.4%
C[C@@H]1O[C@@H](O[C@H]2[C@H](O[C@H]3CC[C@]4(C)[C@H]5CC=C6[C@@H]7CC(C)(C)CC[C@]7(C(=O)O)CC[C@@]6(C)[C@]5(C)CC[C@H]4C3(C)C)OC[C@H](O[C@@H]3O[C@H](CO)[C@@H](O)[C@H](O)[C@H]3O)[C@@H]2O)[C@H](O)[C@H](O)[C@H]1O [Hederacolchiside A1] | – | 2.2%
CC(=O)Oc1ccc(/C=C/c2cc(OC(C)=O)cc(OC(C)=O)c2)cc1 [Triacetylresveratrol] | – | 0%
C[C@@H]1O[C@@H](OC[C@H]2O[C@@H](Oc3cc(O)c4c(c3)O[C@H](c3ccc(O)cc3)CC4=O)[C@H](O)[C@@H](O)[C@@H]2O)[C@H](O)[C@H](O)[C@H]1O [Narirutin] | – | 10.6%
CC(C)C(N)CC(=O)O (centres unmarked) [3-Amino-4-methylpentanoic acid] | – | 10.1%
CC1=C(O)C(=O)C=C2C1=CC=C1[C@@]2(C)CC[C@@]2(C)[C@@H]3C[C@](C)(C(=O)O)CC[C@]3(C)CC[C@]12C [Tripterin] | – | 0.3%
COc1ccc(-c2oc3cc(O)cc(O)c3c(=O)c2O)cc1 [Kaempferide] | – | 13.1%
CC(C)(O)C1Cc2cc3cc(-c4cc(O)cc(O)c4)oc3cc2O1 (centres unmarked) [Moracin O] | – | 35.7%
COC(=O)c1ccc(O)cn1 [Methyl 5-hydroxypyridine-2-carboxylate] | – | 18.9%
O=c1cc(-c2ccc(O)cc2)oc2cc(O)c([C@@H]3O[C@H](CO)[C@@H](O)[C@H](O)[C@H]3O)c(O)c12 [Isovitexin] | – | 21%
CC1(C)CC[C@]2(C)CC[C@]3(C)C(=CC[C@@H]4[C@@]5(C)CC[C@H](O)C(C)(C)[C@@H]5CC[C@]43C)[C@@H]2C1 [β-Amyrin] | – | 29.8%
C[C@@H](CO)[C@@H]1CC[C@@]2(CC[C@]3(C)[C@H](CC[C@@H]4[C@@]5(C)CC[C@H](O[C@@H]6O[C@H](CO)[C@@H](O)[C@H](O)[C@H]6O[C@@H]6O[C@H](CO)[C@@H](O)[C@H](O)[C@H]6O)[C@@](C)(CO[C@@H]6O[C@H](CO)[C@@H](O)[C@H](O)[C@H]6O)[C@@H]5CC[C@]43C)[C@H]2O)CO1 [Hosenkoside A] | – | 34.5%

Nothing new here: entries from further up.
SMILES | 229E Inhibition rate (229E Inhibition rate, 24 h) | 229E Inhibition rate
C[C@]1(OC(=O)/C=C/c2ccccc2)C[C@@H](O)[C@]2(O)C=CO[C@@H](O[C@@H]3O[C@H](CO)[C@@H](O)[C@H](O)[C@H]3O)[C@@H]21 [Harpagoside] | – | 19.6%
COc1ccc(-c2cc(=O)c3c(O)cc(O)c(-c4cc(-c5cc(=O)c6c(O)cc(O)cc6o5)ccc4OC)c3o2)cc1 [Isoginkgetin] | – | 6.1%
